Test results reported in the supplement of paper PMC10727501.
The other results are listed elsewhere or left out. Single values are uncertain here, since repeats match poorly.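 Researchers measured free-swimming zebrafish larvae's O-bend response probability to dark flashes (naive: first five; training: remaining flashes of four 60-flash blocks; test: later 60-flash block) and OMR turning toward alternating leftward/rightward LED motion. Six treated larvae were compared to sixty 0.1% DMSO controls, with |SSMD|≥2 marking a hit.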

Test system: Danio rerio larvae (5 dpf, TLF)
Assay: Prob-Test (SSMD vs DMSO vehicle); higher = higher than vehicle (e.g. higher dark-flash O-bend response probability, or better optomotor performance)
Details: 10 µM; pre-incubation: 30-90 min

Compared with CS(=O)(=O)O.Cn1cc(C2=C(c3cn(CCCSC(=N)N)c4ccccc34)C(=O)NC2=O)c2ccccc21 [Ro 31-8220 Mesylate], CCCCc1ncc(/C=C(\Cc2cccs2)C(=O)O)n1Cc1ccc(C(=O)O)cc1.CS(=O)(=O)O [Eprosartan Mesylate] is higher in Prob-Test: 0.0316 for the first, 0.316 for the second.

First: C[C@@H]1CN(c2c(F)c(F)c3c(=O)c(C(=O)O)cn(C4CC4)c3c2F)C[C@@H](C)N1 [Orbifloxacin]
Second: CC(=O)c1c(C)c2cnc(Nc3ccc(N4CCNCC4)cn3)nc2n(C2CCCC2)c1=O.O=S(=O)(O)CCO
The Prob-Test of the first is higher: 0.0651 for the first, 0.0517 for the second.

Going from [C@@H]1(C[C@@]2(N([C@@](C1)(CC2)[H])C)[H])OC(C(C3C=CC=CC=3)O)=O.Br (stereo partly specified) [Homatropine Bromide] to CC(C)(C)c1ccc(C(O)CCCN2CCC(C(O)(c3ccccc3)c3ccccc3)CC2)cc1 (stereo unspecified) [Terfenadine], the Prob-Test falls from -0.222 to -1.14.

First: CCOC(=O)c1ccc(OC(=O)CCCCCNC(=N)N)cc1.CS(=O)(=O)O [Gabexate Mesylate]
Second: CC(=O)NCC(=O)O.CC(=O)NCC(=O)O.N=C(N)c1ccc(/N=N/Nc2ccc(C(=N)N)cc2)cc1 [Diminazene Aceturate]
The Prob-Test of the first is lower: 0.00417 for the first, 0.586 for the second.

Compared with O=C(O)c1cc(=O)[nH]c(=O)[nH]1 [Orotic acid (6-Carboxyuracil)], Cc1cn([C@@H]2C[C@@H](O)[C@H](CO)O2)c(=O)[nH]c1=O [Telbivudine] is lower in Prob-Test: 1.04 for the first, -0.242 for the second.

Going from C[C@@H]1O[C@@H](OC[C@H]2O[C@@H](Oc3c(-c4ccc(O)c(O)c4)oc4cc(O)cc(O)c4c3=O)[C@@H](O)[C@@H](O)[C@@H]2O)[C@@H](O)[C@H](O)[C@H]1O [Rutin] to Cc1ccc2c(=O)c3cccc(CC(=O)O)c3oc2c1C [DMXAA (Vadimezan)], the Prob-Test falls from 0.0947 to 0.0487.

Going from CC(C)c1ccc(NC(=O)Cn2cnc3c2c(=O)n(C)c(=O)n3C)cc1 to CCOc1ccn(-c2ccc(F)cc2)c(=O)c1C(=O)Nc1ccc(Oc2ccnc(N)c2Cl)c(F)c1, the Prob-Test falls from 0.00401 to -0.0917.

First: NC(Cc1c[nH]c2ccc(O)cc12)C(=O)O (stereo unspecified) [5-hydroxytryptophan (5-HTP)]
Second: N#C/C(=C\c1ccc(O)c(O)c1)C(=O)NCc1ccccc1 [AG-490 (Tyrphostin B42)]
The Prob-Test of the first is lower: 0.316 for the first, 0.62 for the second.

Compared with O=C(Nc1cc2cc[nH]c2cn1)c1ccccc1, CN(C)CCCNC(=O)c1ccc(-c2cc(O)c3ncccc3c2)cc1 is lower in Prob-Test: 0.16 for the first, -0.0485 for the second.

First: Cc1ccccc1CN1C2=NCCN2C(=O)C2=C1CCN(Cc1ccccc1)C2
Second: O=C(c1ccc(F)cc1)C1CCN(CCn2c(=O)[nH]c3ccccc3c2=O)CC1 [Ketanserin]
The Prob-Test of the first is lower: -0.419 for the first, 0.128 for the second.

First: O=C(NOC[C@H](O)CO)c1ccc(F)c(F)c1Nc1ccc(I)cc1F
Second: NC(=O)c1ccc(N(C(N)=O)c2c(F)cccc2F)nc1-c1ccc(F)cc1F
The Prob-Test of the first is lower: -1.49 for the first, -0.393 for the second.

Going from CC(C)(C#N)c1ccc(N2C(=O)OCc3cnc4ccc(-c5cnc6ccccc6c5)cc4c32)cc1 to Cl.Cl.Clc1ccc(Nc2nnc(Cc3ccncc3)c3ccccc23)cc1 [Vatalanib (PTK787) 2HCl], the Prob-Test falls from -0.557 to -1.17.

Compared with COc1cc(Nc2c(C#N)cnc3cc(OCCCN4CCN(C)CC4)c(OC)cc23)c(Cl)cc1Cl [Bosutinib (SKI-606)], COc1cc2c(cc1OC)[C@@H]1Cc3ccc(OC)c(OC)c3CN1CC2 [Rotundine] is lower in Prob-Test: -0.0888 for the first, -0.507 for the second.

First: CCC[C@@H]1C[C@@H](C(=O)N[C@@H](C(C)Cl)[C@H]2O[C@@H](SC)[C@H](O)[C@@H](O)[C@H]2O)N(C)C1.Cl (stereo partly specified) [Clindamycin HCl]
Second: C[C@H]1CCN(C(=O)CC#N)C[C@@H]1N(C)c1ncnc2[nH]ccc12.O=C(O)CC(O)(CC(=O)O)C(=O)O
The Prob-Test of the first is lower: 0.058 for the first, 0.0607 for the second.

First: CN/C(=C/[N+](=O)[O-])NCCSCc1csc(CN(C)C)n1 [Nizatidine]
Second: Cc1ncc([N+](=O)[O-])n1CC(C)O (stereo unspecified) [Secnidazole]
The Prob-Test of the first is higher: -0.131 for the first, -0.142 for the second.

CCS(=O)(=O)CCn1c([N+](=O)[O-])cnc1C [Tinidazole] gave a Prob-Test of 0.0018.
